Patent publication US7326420B2, “Benzoyl peroxide compositions having increased potency” (priority 2001, dated 2008)
At least one compound was matched to its structure with a doubt left.

assay: Polymerization of tetraethylene glycol dimethacrylate (gel formation) as a test of BP radical activity; type: physicochemical; conditions: agent in combination with BP, 3% w/w in tetraethylene glycol dimethacrylate, oven 90 to 100 degrees Celsius
Source text: Methods: Polymerization of tetra ethylene glycol dimethacrylate was used as a test of BP radical activity. Solutions of BP, antibiotics, and BP and antibiotics were made at 3% w/w in tetraethylene glycol dimethacrylate. All of the antibiotics except erythromycin (ERY) were obtained from prescription pills, which were crushed in a crucible. The portion of the pills that disolved in tetraethylene glycol dimethacrylate were used in the experiment. ERY was obtained in powdered form from Benzamycin® acne treatments. Aliquots of ten drops of these solutions were placed in an eight well plastic plate. The samples were heated in an oven that maintained a temperature range between 90 to 100 degrees Celsius. After various amounts of time the samples were taken out of the oven and tested for gel formation. Polymerization of tetraethylene glycol dimethacrylate was detected visually by swirling a spatula in the solutions. Gelling constituted an indicator of BP radical activity.

Row | Structure (SMILES) | effect of the agent on BP radical activity (speed of polymerization of tetraethylene glycol dimethacrylate)
1 | C[C@H]1COc2c(N3CCN(C)CC3)c(F)cc3c(=O)c(C(=O)O)cn1c23 [levofloxacin] | polymerize the fastest
2 | CN(C)c1ccc(O)c2c1C[C@H]1C[C@H]3[C@H](N(C)C)C(O)=C(C(N)=O)C(=O)[C@@]3(O)C(O)=C1C2=O [minocycline] | polymerize the fastest
3 | C[C@H]1c2cccc(O)c2C(=O)C2=C(O)[C@]3(O)C(=O)C(C(N)=O)=C(O)[C@@H](N(C)C)[C@@H]3[C@@H](O)[C@@H]21 [doxycycline] | did not augment BP radical activity
